From patent publication EP1199565B1, “DIAGNOSTICS AND REMEDIES FOR DISEASES WITH PARTICIPATION OF MACROCYTES/MACROPHAGES” (KYOWA HAKKO KOGYO CO., LTD., priority 1999, dated 2000)
At least one peptide structure holds a part that was inferred or is arguable (an end, a ring closure or a residue).

Test system: human monocyte
Assay: Migration test of human monocytes (48-well microchemotaxis chamber)
Format: cell-based
Conditions: 5 nM, positive control

CSCC[C@H](NC=O)C(=O)N[C@@H](CC(C)C)C(=O)N[C@@H](Cc1ccccc1)C(=O)O [fMLP, N-Formyl-Met-Leu-Phe]
migrated number of human monocytes in comparison with no addition of VEGF: 2.5 times
